Source: US9517222B2, “Method for the treatment of senile dementia of the Alzheimer's type” (Phenomenome Discoveries Inc., priority 2007, dated 2016)

How the values were obtained:
[1] = Serum ethanolamine phospholipid levels in human cohorts (dementia severity, post-mortem pathology, age) by flow-injection MS/MS
[2] = Serum ethanolamine phospholipid ratios to PtdEt 16:0/18:0 (M01) in human cohorts
[3] = serum, females, post mortem SDAT
[4] = serum, females, post mortem control

With `CCCCC/C=C\C/C=C\CCCCCCCC(=O)OC(COCCCCCCCCCCCCCCCCCC)COP(=O)(O)OCCN` (centres unmarked) [Metabolite M11, Plasmanyl 18:0/18:2] the “Ratio of serum levels” value ([1]; AD, All to CN, Male) was 0.866, the “Ratio of serum levels” value ([1]; ADAS 5-19 to CN, Male) was 0.861 and the “Ratio of serum levels” value ([1]; ADAS 20-39 to 5-19, Male) was 1.000. For the same compound, the “Ratio of serum levels” value ([1]; ADAS 20-39 to CN, Male) was 0.861, the “Ratio of serum levels” value ([1]; ADAS 40-70 to 5-19, Male) was 0.927 and the “Ratio of serum levels” value ([1]; ADAS 40-70 to 20-39, Male) was 0.927. The “Ratio of serum levels” value ([1]; ADAS 40-70 to CN, Male) was 0.798, the “Serum level, Mean” value ([1]; Cognitive Normal, Female) was 0.105 and the “Average serum level, Mean” value ([1]; Cognitive Normal, Male) was 0.110. The “Serum level, Mean” value ([1]; Post Mortem Ctl, Male) was 0.052, the “Serum level, Mean” value ([1]; Post Mortem SDAT Male) was 0.041 and the “Ratio of serum levels” value ([1]; Post mortem SDAT vs Control, Male) was 0.474. The “Serum level, Mean” value ([1]; SDAT, ADAS 5-19, Female) was 0.094, the “Average serum level, Mean” value ([1]; SDAT, ADAS 5-19, Male) was 0.095 and the “Serum level, Mean” value ([1]; SDAT, ADAS 20-39, Female) was 0.090. The “Average serum level, Mean” value ([1]; SDAT, ADAS 20-39, Male) was 0.095, the “Serum level, Mean” value ([1]; SDAT, ADAS 40-70, Female) was 0.080 and the “Average serum level, Mean” value ([1]; SDAT, ADAS 40-70, Male) was 0.088. For the same compound, the “Serum level, Mean” value ([1]; SDAT_all, Female) was 0.088, the “Average serum level, Mean” value ([1]; SDAT_all, Male) was 0.095 and the “Ratio, ADAS 5-19 to CN, Female” value ([1]; serum level ratio, females, ADAS 5-19 vs CN) was 0.894. The “Ratio, ADAS 20-39 to 5-19, Female” value ([1]; serum level ratio, females, ADAS 20-39 vs ADAS 5-19) was 0.951, the “Ratio, ADAS 20-39 to CN, Female” value ([1]; serum level ratio, females, ADAS 20-39 vs CN) was 0.850 and the “Ratio, ADAS 40-70 to 5-19, Female” value ([1]; serum level ratio, females, ADAS 40-70 vs ADAS 5-19) was 0.853. The “Ratio, ADAS 40-70 to 20-39, Female” value ([1]; serum level ratio, females, ADAS 40-70 vs ADAS 20-39) was 0.896, the “Ratio, ADAS 40-70 to CN, Female” value ([1]; serum level ratio, females, ADAS 40-70 vs CN) was 0.762 and the “Ratio, 50-59 vs. 40-49, Female” value ([1]; serum level ratio, females, age 50-59 vs 40-49) was 0.843. The “Ratio, 60-69 vs. 40-49, Female” value ([1]; serum level ratio, females, age 60-69 vs 40-49) was 0.832, the “Ratio, 70+ vs. 40-49, Female” value ([1]; serum level ratio, females, age 70+ vs 40-49) was 0.843 and the “Ratio, AD, All to CN, Female” value ([1]; serum level ratio, females, all AD vs cognitively normal) was 0.832. For the same compound, the “Ratio, Autopsy AD vs. Control, Female” value ([1]; serum level ratio, females, autopsy AD vs control) was 0.650, the “Ratio, 50-59 vs. 40-49, Male” value ([1]; serum level ratio, males, age 50-59 vs 40-49) was 0.992 and the “Ratio, 60-69 vs. 40-49, Male” value ([1]; serum level ratio, males, age 60-69 vs 40-49) was 1.004. The “Ratio, 70+ vs. 40-49, Male” value ([1]; serum level ratio, males, age 70+ vs 40-49) was 1.058, the “Mean serum level, Age Ctl, 30-39, Female” value ([1]; serum, females, age 30-39) was 0.120 and the “Mean serum level, Age Ctl, 40-49, Female” value ([1]; serum, females, age 40-49) was 0.119. The “Mean serum level, Age Ctl, 50-59, Female” value ([1]; serum, females, age 50-59) was 0.100, the “Mean serum level, Age Ctl, 60-69, Female” value ([1]; serum, females, age 60-69) was 0.099 and the “Mean serum level, Age Ctl, 70+, Female” value ([1]; serum, females, age 70+) was 0.100. The “Mean serum level, Post Mortem SDAT, Female” value [1, 3] was 0.025, the “Mean serum level, Post Mortem Ctl, Female” value [1, 4] was 0.064 and the “Mean serum level, Age Ctl, 30-39, Male” value ([1]; serum, males, age 30-39) was 0.131. The “Mean serum level, Age Ctl, 40-49, Male” value ([1]; serum, males, age 40-49) was 0.099, the “Mean serum level, Age Ctl, 50-59, Male” value ([1]; serum, males, age 50-59) was 0.098 and the “Mean serum level, Age Ctl, 60-69, Male” value ([1]; serum, males, age 60-69) was 0.099. For the same compound, the “Mean serum level, Age Ctl, 70+, Male” value ([1]; serum, males, age 70+) was 0.104, the “Ratio of ethanolamine phospholipid ratios to M01 between cohorts” value (shortened to “Ratio … to M01 between cohorts”) ([2]; AD, All to CN, Male) was 0.830 and the “Ratio … to M01 between cohorts” value ([2]; ADAS 5-19 to CN, Male) was 0.841. For the same compound, the “Ratio … to M01 between cohorts” value ([2]; ADAS 20-39 to CN, Male) was 0.837, the “Ratio … to M01 between cohorts” value ([2]; ADAS 40-70 to CN, Male) was 0.773 and the “Average serum ethanolamine phospholipid ratio to M01, Mean” value ([2]; Cognitive Normal, Male, serum) was 0.985. The “Average serum ethanolamine phospholipid ratio to M01, Mean” value ([2]; SDAT, ADAS 5-19, Male, serum) was 0.828, the “Average serum ethanolamine phospholipid ratio to M01, Mean” value ([2]; SDAT, ADAS 20-39, Male, serum) was 0.824 and the “Average serum ethanolamine phospholipid ratio to M01, Mean” value ([2]; SDAT, ADAS 40-70, Male, serum) was 0.761. The “Average serum ethanolamine phospholipid ratio to M01, Mean” value ([2]; SDAT_all, Male, serum) was 0.817, the “Ethanolamine Phospholipid Ratio to M01, Mean, Age Ctl, 30-39, Female” value ([2]; human serum, females aged 30-39) was 1.220 and the “Ethanolamine Phospholipid Ratio to M01, Mean, Age Ctl, 40-49, Female” value ([2]; human serum, females aged 40-49) was 1.092. For the same compound, the “Ethanolamine Phospholipid Ratio to M01, Mean, Age Ctl, 50-59, Female” value ([2]; human serum, females aged 50-59) was 1.021, the “Ratio of Ethanolamine Phospholipid Ratio to M01, 50-59 vs. 40-49, Female” value ([2]; human serum, females aged 50-59 vs. females aged 40-49) was 0.935 and the “Ethanolamine Phospholipid Ratio to M01, Mean, Age Ctl, 60-69, Female” value ([2]; human serum, females aged 60-69) was 0.823. The “Ratio of Ethanolamine Phospholipid Ratio to M01, 60-69 vs. 40-49, Female” value ([2]; human serum, females aged 60-69 vs. females aged 40-49) was 0.754, the “Ethanolamine Phospholipid Ratio to M01, Mean, Age Ctl, 70+_Female” value ([2]; human serum, females aged 70+) was 0.840 and the “Ratio of Ethanolamine Phospholipid Ratio to M01, 70+ vs. 40-49, Female” value ([2]; human serum, females aged 70+ vs. females aged 40-49) was 0.770. For the same compound, the “Ratio of Ethanolamine Phospholipid Ratio to M01, 50-59 vs. 40-49, Male” value ([2]; human serum, males aged 50-59 vs. males aged 40-49) was 1.010, the “Ratio of Ethanolamine Phospholipid Ratio to M01, 60-69 vs. 40-49, Male” value ([2]; human serum, males aged 60-69 vs. males aged 40-49) was 0.878 and the “Ratio of Ethanolamine Phospholipid Ratio to M01, 70+ vs. 40-49, Male” value ([2]; human serum, males aged 70+ vs. males aged 40-49) was 0.903. The “Ratio of ethanolamine phospholipid ratio to M01, ADAS 5-19 to CN, Female” value ([2]; serum, females, ADAS 5-19 vs cognitive normal) was 0.953, the “Ratio of ethanolamine phospholipid ratio to M01, ADAS 20-39 to 5-19, Female” value ([2]; serum, females, ADAS 20-39 vs ADAS 5-19) was 0.947 and the “Ratio of ethanolamine phospholipid ratio to M01, ADAS 20-39 to CN, Female” value ([2]; serum, females, ADAS 20-39 vs cognitive normal) was 0.902. For the same compound, the “Ratio of ethanolamine phospholipid ratio to M01, ADAS 40-70 to 5-19, Female” value ([2]; serum, females, ADAS 40-70 vs ADAS 5-19) was 0.799, the “Ratio of ethanolamine phospholipid ratio to M01, ADAS 40-70 to 20-39, Female” value ([2]; serum, females, ADAS 40-70 vs ADAS 20-39) was 0.844 and the “Ratio of ethanolamine phospholipid ratio to M01, ADAS 40-70 to CN, Female” value ([2]; serum, females, ADAS 40-70 vs cognitive normal) was 0.762. For the same compound, the “Ethanolamine phospholipid ratio to M01, Mean, SDAT, ADAS 5-19, Female” value ([2]; serum, females, SDAT ADAS 5-19) was 0.886, the “Ethanolamine phospholipid ratio to M01, Mean, SDAT, ADAS 20-39, Female” value ([2]; serum, females, SDAT ADAS 20-39) was 0.839 and the “Ethanolamine phospholipid ratio to M01, Mean, SDAT, ADAS 40-70, Female” value ([2]; serum, females, SDAT ADAS 40-70) was 0.708. The “Ratio of ethanolamine phospholipid ratio to M01, AD, All to CN, Female” value ([2]; serum, females, all AD vs cognitive normal) was 0.868, the “Ethanolamine phospholipid ratio to M01, Mean, SDAT_all Female” value ([2]; serum, females, all SDAT) was 0.807 and the “Ratio of ethanolamine phospholipid ratio to M01, Autopsy AD vs. Control, Female” value ([2]; serum, females, autopsy AD vs post mortem control) was 0.950. The “Ethanolamine phospholipid ratio to M01, Mean, Cognitive Normal, Female” value ([2]; serum, females, cognitive normal) was 0.929, the “Ethanolamine phospholipid ratio to M01, Mean, Post Mortem SDAT Female” value [2, 3] was 0.364 and the “Ethanolamine phospholipid ratio to M01, Mean, Post Mortem Ctl, Female” value [2, 4] was 0.384. The “Ratio of ethanolamine phospholipid ratio to M01, ADAS 20-39 to 5-19, Male” value ([2]; serum, males, SDAT ADAS 20-39 vs ADAS 5-19) was 0.995, the “Ratio of ethanolamine phospholipid ratio to M01, ADAS 40-70 to 5-19, Male” value ([2]; serum, males, SDAT ADAS 40-70 vs ADAS 5-19) was 0.919 and the “Ratio of ethanolamine phospholipid ratio to M01, ADAS 40-70 to 20-39, Male” value ([2]; serum, males, SDAT ADAS 40-70 vs ADAS 20-39) was 0.924. The “Ethanolamine phospholipid ratio to M01, Mean, Age Ctl, 30-39, Male” value ([2]; serum, males, age control 30-39) was 1.063, the “Ethanolamine phospholipid ratio to M01, Mean, Age Ctl, 40-49, Male” value ([2]; serum, males, age control 40-49) was 0.899 and the “Ethanolamine phospholipid ratio to M01, Mean, Age Ctl, 50-59, Male” value ([2]; serum, males, age control 50-59) was 0.908. For the same compound, the “Ethanolamine phospholipid ratio to M01, Mean, Age Ctl, 60-69, Male” value ([2]; serum, males, age control 60-69) was 0.789, the “Ethanolamine phospholipid ratio to M01, Mean, Age Ctl, 70+_Male” value ([2]; serum, males, age control 70+) was 0.811 and the “Ethanolamine phospholipid ratio to M01, Mean, Post Mortem SDAT Male” value ([2]; serum, males, post mortem SDAT) was 0.272. For the same compound, the “Ratio of ethanolamine phospholipid ratio to M01, SDAT vs Control (post mortem, males)” value ([2]; serum, males, post mortem SDAT vs post mortem control) was 0.602 and the “Ethanolamine phospholipid ratio to M01, Mean, Post Mortem Ctl, Male” value ([2]; serum, males, post mortem control) was 0.452.

A unit is not stated for every read-out.
